Reference: US20210113649A1
These are yes or no findings as the source states them, for the method shown. Some results given as binding are weak or reduced against the parent protein; the word gives no strength.

Amino acid sequences for entries named in this document (tags omitted). Residues count along the entry.
UniProt P63165, residues 1-97: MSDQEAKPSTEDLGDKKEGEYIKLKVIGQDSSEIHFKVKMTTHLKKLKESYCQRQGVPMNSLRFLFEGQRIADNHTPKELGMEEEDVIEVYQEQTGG

How the values were obtained:
SUMO1 [1] = target: SUMO1 (UniProt P63165); assay: fluorescence polarization (FIG. 18B)
SUMO1 [2] = target: SUMO1 (UniProt P63165); assay: fluorescence polarization, TAMRA-SIM2 with increased concentrations of SUMO1
SUMO1 [3] = target: SUMO1 (UniProt P63165); assay: fluorescence polarization, TAMRA-SIM2 with increased concentrations of SUMO1 (FIG. 18B)

Measured: binding

DPEEIIVLSDSD (TAMRA (5-carboxytetramethylrhodamine) label; position of attachment not stated) [TAMRA (5-carboxytetramethylrhodamine)-SIM2 peptide]
binds: all assays above
